The shares of active, inactive and inconclusive entries below differ from those in the screen. A potency beside an inconclusive call is a rough fit, not a confirmed value. The source made the active and inactive calls. Unless noted, the limit is not given here; nearly all actives have AC50 up to about 23 µM.
Assay: growth inhibition of DIPG glioma cells, dose response, cell-based, SU-DIPG-IV, MIPE4.0, CellTiter-Glo, qHTS (AID 1347063; cut-off not given, nearly all actives have AC50 up to about 30 µM;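 also: compound exposure lasted 48 hours before the viability readout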)
Settings: SU-DIPG-IV viability, CellTiter-Glo ATP luminescence
In the case of `CCNC(=O)C[C@@H]1N=C(c2ccc(Cl)cc2)c2cc(OC)ccc2-n2c(C)nnc21`, the AC50 is reported as inconclusive: 1.05 µM [cytotoxic]. With `Cn1c(CCCC(=O)O)nc2cc(N(CCCl)CCCl)ccc21` the AC50 was inconclusive: 23.5 µM [cytotoxic]. For `O=P1(N(CCCl)CCCl)NCCCO1` (centres undefined), the outcome was “inactive”. With `Cc1c(C(=O)Nc2cccc(C(F)(F)F)c2)cc(-c2ccccc2)n1CCCN1CCOCC1` the AC50 was active: 18.7 µM. In the case of `Cc1sc2c(c1C)C(c1ccc(Cl)cc1)=N[C@@H](CC(=O)OC(C)(C)C)c1nnc(C)n1-2`, the AC50 is reported as inconclusive: 0.526 µM [cytotoxic]. With `O=C(N[C@@H](COc1ccc2[nH]c(=O)[nH]c2c1)c1ccccc1)c1cccn(Cc2ccc(F)c(F)c2)c1=O` the AC50 was inconclusive: 18.7 µM [cytotoxic]. With `CN(C)CCN(C)CCc1ccc(Cl)c(Cl)c1` the outcome was “inactive”. In the case of `C=C[C@H]1CN2CCC1C[C@@H]2[C@@H](O)c1ccnc2ccccc12` (some centres undefined), the AC50 is reported as inconclusive: 37.2 µM [cytotoxic]. In the case of `O=c1cccc2n1CC1CNC[C@H]2C1`, the AC50 is reported as inconclusive: 2.64 µM [cytotoxic]. For `COc1ccc(C(=O)c2c(C)n(CCN3CCOCC3)c3cc(I)ccc23)cc1`, the AC50 was active: 20.9 µM. For `Cn1cc(C2=C(c3cn(C4CCN(Cc5ccccn5)CC4)c4ccccc34)C(=O)NC2=O)c2ccccc21`, the AC50 was inconclusive: 6.62 µM [cytotoxic]. In the case of `COC1(CS(=O)c2ccccc2)CCN(CCc2c[nH]c3ccc(F)cc23)CC1` (centres undefined), the outcome is reported as “inactive”. In the case of `C[C@@H]1CC[C@H]2[C@@H](C)C(=O)O[C@@H]3O[C@@]4(C)CC[C@@H]1[C@]32OO4`, the AC50 is reported as inconclusive: 14.8 µM [cytotoxic]. With `CCCCCC[C@H]1C(=O)O[C@H](C)[C@H](NC(=O)c2cccc(NC=O)c2O)C(=O)O[C@@H](C)[C@@H]1OC(=O)CC(C)C` the AC50 was inconclusive: 0.0935 µM [cytotoxic]. In the case of `CC(C)CC(N(C)C)C1(c2ccc(Cl)cc2)CCC1` (centres undefined), the outcome is reported as “inactive”. In the case of `CC(C)[C@]12O[C@H]1[C@@H]1O[C@]13[C@]1(O[C@H]1C[C@H]1C4=C(CC[C@@]13C)C(=O)OC4)[C@@H]2O`, the outcome is reported as “inactive”. For `CO[C@H]1CCC(O[C@H]2C[C@H]([C@]3(C)CC[C@]4(C[C@H](O)[C@@H](C)[C@@H]([C@@H](C)/C=C(\C)C(=O)[C@H](C)C[C@H](C)C(=O)O)O4)O3)O[C@]3(O[C@@H]([C@H]4O[C@@](O)(CO)[C@H](C)C[C@@H]4C)C[C@@H]3C)[C@@H]2C)O[C@@H]1C` (some centres undefined), the AC50 was inconclusive: 1.32 µM [cytotoxic]. For `C[C@](O)(COc1ccc(C#N)cc1)C(=O)Nc1ccc(C#N)c(C(F)(F)F)c1`, the outcome was “inactive”. For `O=S(=O)(CC1CS1)c1ccc(Oc2ccccc2)cc1` (centres undefined), the AC50 was active: 20.9 µM. For `C[C@@H]1O[C@@H](O[C@H]2C[C@@H](O)[C@]3(CO)[C@H]4[C@H](O)C[C@]5(C)[C@@H](C6=CC(=O)OC6)CC[C@]5(O)[C@@H]4CC[C@]3(O)C2)[C@H](O)[C@H](O)[C@H]1O`, the AC50 was active: 0.0148 µM.

Assay: growth inhibition of DIPG glioma cells, dose response, cell-based, SU-DIPG-XIII, MIPE5.0, CellTiter-Glo, qHTS (AID 1347064);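 as to AC50: cells exposed to compound for 48 hours before the viability read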
Settings: SU-DIPG-XIII viability, CellTiter-Glo ATP luminescence
In the case of `CCC1(c2ccc(N)cc2)CCC(=O)NC1=O` (centres undefined), the AC50 is reported as inconclusive: 0.00105 µM. In the case of `COc1ccc2c(c[n+](C)c3c4cc5c(cc4ccc23)OCO5)c1OC`, the AC50 is reported as active: 4.17 µM. In the case of `O=c1[nH]c2ccccc2n1C1CCN(Cc2ccc(-c3[nH]c4cc5ncnc5cc4nc3-c3ccccc3)cc2)CC1`, the AC50 is reported as inconclusive: 20.9 µM [cytotoxic]. For `CC(NC(C)(C)C)C(=O)c1cccc(Cl)c1` (centres undefined), the AC50 was inconclusive: 0.00105 µM. In the case of `C[C@]12CC[C@H]3[C@@H](CCC4=CC(=O)CC[C@@H]43)[C@@H]1CC[C@@H]2OC(=O)CCc1ccccc1`, the AC50 is reported as inconclusive: 33.2 µM [cytotoxic]. For `COC[C@H]1OC(=O)c2coc3c2[C@@]1(C)C1=C(C3=O)C2CCC(=O)[C@@]2(C)C[C@H]1OC(C)=O` (some centres undefined), the AC50 was inconclusive: 6.61 µM [cytotoxic]. With `CCOC(=O)Nc1ccc(NCc2ccc(F)cc2)cc1N` the outcome was “inactive”. In the case of `CCNC(=O)C[C@@H]1N=C(c2ccc(Cl)cc2)c2cc(OC)ccc2-n2c(C)nnc21`, the AC50 is reported as inconclusive: 4.17 µM [cytotoxic]. For `Cn1c(CCCC(=O)O)nc2cc(N(CCCl)CCCl)ccc21`, the outcome was “inactive”. In the case of `O=P1(N(CCCl)CCCl)NCCCO1` (centres undefined), the outcome is reported as “inactive”. For `Cc1c(C(=O)Nc2cccc(C(F)(F)F)c2)cc(-c2ccccc2)n1CCCN1CCOCC1`, the outcome was “inactive”. For `Cc1cccc(C)c1NC(=O)CN1CCCC1=O`, the outcome was “inactive”. For `Cc1sc2c(c1C)C(c1ccc(Cl)cc1)=N[C@@H](CC(=O)OC(C)(C)C)c1nnc(C)n1-2`, the AC50 was inconclusive: 4.17 µM [cytotoxic]. With `CN(C)CCN(C)CCc1ccc(Cl)c(Cl)c1` the outcome was “inactive”. For `C=C[C@H]1CN2CCC1C[C@@H]2[C@@H](O)c1ccnc2ccccc12` (some centres undefined), the outcome was “inactive”. In the case of `O=c1cccc2n1CC1CNC[C@H]2C1`, the AC50 is reported as inconclusive: 0.059 µM [cytotoxic]. With `O=C(O)C(=O)c1cn(Cc2ccccc2)c2ccc(-c3ccc(OC(F)(F)F)cc3)cc12` the AC50 was inconclusive: 29.5 µM [cytotoxic]. In the case of `COC[C@H]1OC(=O)c2coc3c2[C@@]1(C)C1=C(C3=O)[C@@H]2CC[C@H](O)[C@@]2(C)C[C@H]1OC(C)=O`, the AC50 is reported as active: 9.34 µM. With `Cn1cc(C2=C(c3cn(C4CCN(Cc5ccccn5)CC4)c4ccccc34)C(=O)NC2=O)c2ccccc21` the AC50 was inconclusive: 29.5 µM [cytotoxic]. In the case of `COC1(CS(=O)c2ccccc2)CCN(CCc2c[nH]c3ccc(F)cc23)CC1` (centres undefined), the outcome is reported as “inactive”. In the case of `C[C@@H]1CC[C@H]2[C@@H](C)C(=O)O[C@@H]3O[C@@]4(C)CC[C@@H]1[C@]32OO4`, the AC50 is reported as inconclusive: 0.00132 µM. For `CO/C1=C/C(C)=C\[C@@H](C)[C@@H](O)[C@@H](C)C/C(C)=C\C=C/[C@H](OC)[C@@H]([C@@H](C)[C@@H](O)[C@H](C)[C@@]2(O)C[C@@H](O)[C@H](C)[C@@H](C(C)C)O2)OC1=O`, the AC50 was inconclusive: 7.83 µM [cytotoxic]. In the case of `CCCCCC[C@H]1C(=O)O[C@H](C)[C@H](NC(=O)c2cccc(NC=O)c2O)C(=O)O[C@@H](C)[C@@H]1OC(=O)CC(C)C`, the AC50 is reported as inconclusive: 0.0132 µM [cytotoxic]. With `CC(C)CC(N(C)C)C1(c2ccc(Cl)cc2)CCC1` (centres undefined) the AC50 was inconclusive: 23.5 µM [cytotoxic]. For `CC(C)[C@]12O[C@H]1[C@@H]1O[C@]13[C@]1(O[C@H]1C[C@H]1C4=C(CC[C@@]13C)C(=O)OC4)[C@@H]2O`, the AC50 was inconclusive: 0.105 µM [cytotoxic]. With `CC(O)(CS(=O)(=O)c1ccc(F)cc1)C(=O)Nc1ccc(C#N)c(C(F)(F)F)c1` (centres undefined) the AC50 was inconclusive: 0.00209 µM. In the case of `CN1[C@@H]2CC(O)C[C@H]1[C@@H]1O[C@@H]12` (some centres undefined), the outcome is reported as “inactive”. For `O=S(=O)(CC1CS1)c1ccc(Oc2ccccc2)cc1` (centres undefined), the AC50 was inconclusive: 16.6 µM [cytotoxic]. For `C[C@@H]1O[C@@H](O[C@H]2C[C@@H](O)[C@]3(CO)[C@H]4[C@H](O)C[C@]5(C)[C@@H](C6=CC(=O)OC6)CC[C@]5(O)[C@@H]4CC[C@]3(O)C2)[C@H](O)[C@H](O)[C@H]1O`, the AC50 was inconclusive: 0.0468 µM [cytotoxic].
